The assay has as its target OTULINcat (aa 80-352) (human) (UniProt Q96BN8). The experiment in a line: condition: 150-450 µM PDZ variant in the syringe, 20-30 µM OTULINcat variant in the cell; ITC; PDZ variant (150-450 µM) in the syringe, OTULINcat variant (20-30 µM) in the cell; 25 °C; 20 mM HEPES pH 7.4, 200 mM NaCl, 2 mM TCEP; single-site binding model; both purified.

These are yes or no findings as the source states them, for the method shown.

B1: MUPP1 PDZ8 (1346-1436) (domain or fragment, UniProt O75970 1346-1436)
chain: GELHMIELEKGHSGLGLSLAGNKDRSRMSVFIVGIDPNGAAGKDGRLQIADELLEINGQILYGRSHQNASSIIKCAPSKVKIIFIRNKDAV
Turning to B1, the binding entry is “no binding”.

Source of the values: PMC6754446.
